The results in this text go back to patent US20240358862.

Chains of the proteins cited; added tags and fusions are not shown. Residues count along the entry.
UniProt O43653, 12-83: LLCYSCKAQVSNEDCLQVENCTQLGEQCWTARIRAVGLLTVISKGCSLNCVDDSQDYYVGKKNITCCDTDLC

In this data set the target is PSCA (prostate stem cell antigen) (Homo sapiens) (UniProt O43653). In words: pull-down. Particulars: PC-3 membrane proteins; anti-PSCA western blot and LC-MS/MS identification; protein in an extract; label: 3'-ICG (biotin or agarose conjugate for pull-down); single-stranded DNA. On the technique in general: In western blotting, separated proteins are transferred to a membrane and probed.

For at least one entry, the source does not settle the construct or the ends of the probe. Where cells or extracts were used, other partners may take part.

On to “TGCCACTACAGCTGGTTCGGTTTGGTGACTTCGTTCTTCGTTGTGGTGCTTAGTGGC [GGa-ICG]”, for which the binding result is “binds”.
